For this assay, the target named is recombinant human MSLN (purchased from Peprotech) (human) (UniProt Q13421). In words: SPR. (SPR reads the build-up and loss of mass on a sensor chip optically.)

Amino acid sequences for entries named in this document (tags omitted). A change or cut given only in a name is not applied to a line headed by its entry. Chains listed by the source or under a name are the forms on record and can include a tag or linker.
recombinant human MSLN (purchased from Peprotech) (Q13421, form named): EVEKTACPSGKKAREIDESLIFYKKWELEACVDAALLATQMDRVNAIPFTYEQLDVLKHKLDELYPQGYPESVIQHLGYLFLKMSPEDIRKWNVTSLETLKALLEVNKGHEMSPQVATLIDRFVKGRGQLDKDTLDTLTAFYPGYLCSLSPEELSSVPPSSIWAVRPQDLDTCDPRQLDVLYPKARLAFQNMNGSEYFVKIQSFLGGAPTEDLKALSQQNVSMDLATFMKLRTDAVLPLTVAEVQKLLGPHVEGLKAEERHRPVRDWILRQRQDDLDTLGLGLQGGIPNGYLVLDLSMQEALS

These are yes or no findings as the source states them, for the method shown. Some binding calls cover weakened binding; strength is not graded here.

B1: PRO2567 (MATCH4) (protein)
chain 1: AFELTQSPSSLSASVGDRVTITCQASESINSRLAWYQQKPGQPPKLLIYDASDLTSGVPSRFSGSGSGTDFTLTISSLQPEDFATYYCQGYGGSSTTTFGTGTKLTVLGGGGGSGGGGSGGGGSGGGGSEVQLVESGGGLVQPGGSLRLSCAASGFSLSSYAMNWVRQAPGKGLEWIGHINAGDIAYYATWAKGRFTISRDNSKNTVYLQMNSLRAEDTAVYFCARGAGGFSTGPFKLWGQGTLVTVSSGGGGSGGGGSEVQLVESGGGLVQPGGSLRLSCAASGFSLSSYDMSWVRQAPGKGLAWIGASYASGPTYYASWAKGRFTISRDNSKNTVYLQMNSLRAEDTATYFCARGGWTGTSHSNIWGQGTLVTVSSGGGSGGGSGGGSGQSQLVESGGGLVQPGGSLRLSCAVSGFSLSSYAMGWVRQAPGKCLEYIGYISKIGTTYYASWAKGRFTISKDNSKNTVYLQMNSLRAEDTAVYFCARGSSSGGYLDDGFDPWGQGTLVTVSS
chain 2: ALQMTQSPSSLSARVGDRVTIKCQASQSISNYLAWYQQKPGKPPKFLIYDASDLASGVPSRFSGSGSGRDFTLTISSLQPEDFATYYCQQVYDSNNVENVFGCGTKVTVLGGGGGSGGGGSGGGGSGGGGSQSQLVESGGGLVQPGGSLRLSCAVSGFSLSSYAMGWVRQAPGKCLEYIGYISKIGTTYYASWAKGRFTISKDNSKNTVYLQMNSLRAEDTAVYFCARGSSSGGYLDDGFDPWGQGTLVTVSSGGGGSGGGGSALQMTQSPSSLSARVGDRVTIKCQASQSISNYLAWYQQKPGKPPKFLIYDASDLASGVPSRFSGSGSGRDFTLTISSLQPEDFATYYCQQVYDSNNVENVFGCGTKVTVLGGGSGGSDIQMTQSPSSLSASVGDRVTITCQSSQSVFSNNYLAWFQQKPGQSPKRLIYSASTLASGVPSRFSGSGSGTDFTLTISSLQPEDFATYYCLGSYACSSADCYVFGTGTKVTVLG
Turning to B1, the binding result is “binds”.
